The source of these data is PubChem BioAssay AID1458 (National Center for Advancing Translational Sciences (NCATS), 2008).

The structures appear in SMILES notation. About 5,900 (2.8%) of roughly 210,000 compounds were called active. About 5% were inconclusive and are not listed. Calls come from the whole dose curve; as a rule, active = well fitted activation curve with a large enough effect; inconclusive = small, poorly fitted or top-dose-only effect; inactive = no such curve, though single readings can be large or run the other way. This is a selection; strong and weak results do not stand in their true shares. Where no call is shown, the source filed none.
Potency is the fitted concentration of half-maximal effect.

The assay is described as follows: qHTS Assay for Enhancers of SMN2 Splice Variant Expression. For activity change, positive = activation: % of control where 0% means no effect. Note: nearly all actives have a fitted effect of over 55% in size. The settings on record: HEK293 SMN2-luciferase splicing reporter, luminescence, 30-36 h; activity change, positive = activation: at 46.1 µM (top of the series) unless noted. A digest of the protocol:
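HEK293 cells carry an SMN2 minigene-luciferase reporter in which exon 7 inclusion puts luciferase in frame. Cells were seeded at 2000 cells/well, attached for 10-12 hours, then exposed to compounds for 30-36 hours at 37C before ONE-Glo luminescence.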
(In general: In qHTS, concentration-response curves come from the screen itself.)
Turning to `COc1ccc2c(c1)C(=O)/C(=C/C=C/c1ccccc1)CC2`, the Potency was active: 11.2 µM.
`COc1cc(C(=O)Nc2cc(C)c(OCC(=O)N3CCOCC3)c(C)c2)cc(OC)c1OC`: the activity change, positive = activation was determined as 42.7%.
Turning to `COc1cccc(C(=O)Nc2cc3c(cc2Cl)OCCCO3)c1`, the Potency is active: 10 µM.
Regarding `CCOc1cccc(N2C(=O)CC(N3CCN(c4nc5ccccc5s4)CC3)C2=O)c1` (stereo not given), the activity change, positive = activation worked out at 36.6%.
As for `CC1CC(=O)N(c2ccc(NCc3ccc(Cl)cc3)c([N+](=O)[O-])c2)C1=O` (stereo not given), the activity change, positive = activation came to 9.66%.
As to `O=C(N/N=C/c1ccsc1)c1ccccn1`, the activity change, positive = activation came to 195%.
As for `CCOC(=O)N1CCC(Nc2nc3ccccc3nc2NS(=O)(=O)c2ccc(Cl)cc2)CC1`, the activity change, positive = activation amounted to 50.5%.
As for `COC(=O)c1cccc(NC(=O)c2onc3c2CCCC3)c1`, the Potency was active: 0.794 µM.
As to `COc1cc(CNc2ccc(CNc3ncn[nH]3)cc2)cc(Cl)c1OCc1ccccc1`, the activity change, positive = activation is -42.8%.
As to `Cc1ccc(-c2nnc(N(C)C(=O)c3ccccn3)s2)cn1`, the activity change, positive = activation came out at 63.4%.
Take `COc1ccc(C2(O)CCN(CC(=O)Nc3nc(-c4ccccc4)cs3)CC2)cc1`: the “activity change, positive = activation” value is inactive: -52.6%.
Take `Cc1cc(NS(=O)(=O)Cc2ccccc2)no1`: the activity change, positive = activation was found to be 43.5%.
As to `O=C1N=C(N2CCOCC2)S/C1=C\c1ccc(-c2ccccc2Cl)o1`, the “activity change, positive = activation” value is inactive: -16.7%.
As to `O=C(Nc1ccncc1)C1c2ccccc2Oc2ccccc21`, the activity change, positive = activation came to 81.8%.
`CCN(CC)C(=O)c1ccccc1NS(=O)(=O)c1ccc(C)cc1`: the activity change, positive = activation was determined as 44.1%.
For `COC(=O)c1cc(-c2ccccc2)n(CC(=O)O)c1C`, the activity change, positive = activation came out at 83.2%.
Consider `CN(C)c1ccc(C=Nc2cnn(C)c2C(N)=O)cc1`, for which the activity change, positive = activation came out at 34.5%.
The same measure, in the same setting: to `COc1cccc(C(=O)Oc2cc3c4c(c2)C(C)=CC(C)(C)N4C(=O)C3=O)c1` belongs 12%; to `CCOc1ccc(C(=O)C(CCC(CN(C)C)C(=O)c2ccc(OCC)cc2)CN(C)C)cc1` (stereo not given), inactive: -107%; to `C/C(=N\OCc1ccccc1C#N)c1cc2ccccc2o1`, 35.5%.
`Cc1ccc(NC(=O)c2ccc(OC(F)(F)F)cc2)cc1S(=O)(=O)N(C)C`: the “activity change, positive = activation” value was inactive: -75.9%.
Still for that read-out and setting: to `CCn1c(NC(=O)c2cccc(Cn3cc(Cl)cn3)c2)nc2ccccc21` belongs inactive: -52%; to `CN1CCN(C(=S)NC(=O)/C=C/c2ccccc2)CC1`, -25.2%; to `COC(=O)c1sccc1NC(=O)c1ccc(C)s1`, -46.1%.
The same measure, in the same setting: as for `N#CC1=C(N)Oc2c(ccc3cccnc23)C1c1cccnc1` (stereo not given), the figure is -35.4%; as for `Cc1cc(Cl)c(S(=O)(=O)NCc2ccncc2)cc1OCC(N)=O`, -36.7%.
With `S=C(NCCc1ccccc1)NN=C1CCCCCC1`, the Potency was active: 12.6 µM.
As for `Cc1ccc(O)c(C(=O)c2cnn(-c3ccccc3)c2)c1`, the activity change, positive = activation was determined as 81.7%.
Regarding `Cc1nnc(SCC(=O)N2CCc3ccccc3C2)s1`, the activity change, positive = activation came out at 40.2%.
On the same count and under the same terms, to `Cc1onc(C(=O)Nc2sc3c(c2C#N)CCCC3)c1[N+](=O)[O-]` belongs -24%.
